Data as given in PubChem BioAssay AID1259284 (Sanger Institute, 2017).

Purpose: 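siRNA screen across the kinome seeking partners for BYL719, cetuximab or trametinib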 (primary screen)
System: SW48 human colorectal cancer cells
Reagent: siRNA pool against human genes
Conditions: anchor drug BYL719 at 1 µM, cetuximab at 5 µg/ml or trametinib at 10 nM, or DMSO vehicle alone
Measured: 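Cell viability relative to non-targeting pool wells, replicate mean, with robust z-scores and drug synergy scores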
Direction: robust z-score, no drug: higher = more cells survive knock-down
Hit rule: 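Called essential when the robust z-score of viability without drug falls below -3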
Meaning of the calls: active = essential without drug; inactive = no change without drug
Here is a random part of 794 reagents. 16 of all reagents (2%) count as active. 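Calls concern knock-down without drug only; drug synergy was judged apart, with scores above 0.15 taken as synergy.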 A number with no mark means an inactive call. Further read-outs or replicates are left out here. Not stated in the record: the amount of reagent, the time to read-out.

The opening 2 entries, ahead of the listing:
{"target":"CALM2 (calmodulin 2)","PubChem SID":"SID134320655","robust z-score, no drug":0.426}
{"target":"GUK1 (guanylate kinase 1)","PubChem SID":"SID152156775","robust z-score, no drug":0.0785}

Results, from the start:
{"target":"CALM2 (calmodulin 2)","PubChem SID":"SID134320655","robust z-score, no drug":0.426}
{"target":"GUK1 (guanylate kinase 1)","PubChem SID":"SID152156775","robust z-score, no drug":0.0785}
{"target":"POMK (protein O-mannose kinase)","PubChem SID":"SID56479008","robust z-score, no drug":0.385}
{"target":"SRPK3 (SRSF protein kinase 3)","PubChem SID":"SID135620894","robust z-score, no drug":0.426}
{"target":"BUB1 (BUB1 mitotic checkpoint serine/threonine kinase)","PubChem SID":"SID152152440","robust z-score, no drug":0.426}
{"target":"MAPK6 (mitogen-activated protein kinase 6)","PubChem SID":"SID56478707","robust z-score, no drug":0.426}
{"target":"RPS6KA1 (ribosomal protein S6 kinase A1)","PubChem SID":"SID152152227","robust z-score, no drug":-0.401}
{"target":"IDH2 (isocitrate dehydrogenase (NADP(+)) 2)","PubChem SID":"SID134310230","robust z-score, no drug":0.426}
{"target":"MAP3K11 (mitogen-activated protein kinase kinase kinase 11)","PubChem SID":"SID152156459","robust z-score, no drug":0.426}
{"target":"STK32A (serine/threonine kinase 32A)","PubChem SID":"SID152151517","robust z-score, no drug":0.426}
{"target":"PDPK1 (3-phosphoinositide dependent protein kinase 1)","PubChem SID":"SID135620604","robust z-score, no drug":0.426}
{"target":"EXOSC10 (exosome component 10)","PubChem SID":"SID152152402","robust z-score, no drug":0.426}
{"target":"PANK1 (pantothenate kinase 1)","PubChem SID":"SID56478765","robust z-score, no drug":0.426}
{"target":"BRSK2 (BR serine/threonine kinase 2)","PubChem SID":"SID152155603","robust z-score, no drug":0.426}
{"target":"PCBP1 (poly(rC) binding protein 1)","PubChem SID":"SID134316528","robust z-score, no drug":-0.983}
{"target":"PRP4K (pre-mRNA processing factor kinase PRP4K)","PubChem SID":"SID152152780","robust z-score, no drug":0.426}
{"target":"TPD52L3 (TPD52 like 3)","PubChem SID":"SID56479192","robust z-score, no drug":0.426}
{"target":"NUCKS1","PubChem SID":"SID152150801","robust z-score, no drug":0.426}
{"target":"CASK (calcium/calmodulin dependent serine protein kinase)","PubChem SID":"SID56479000","robust z-score, no drug":0.426}
{"target":"LMTK2 (lemur tail kinase 2)","PubChem SID":"SID152147902","robust z-score, no drug":-0.501}
{"target":"IRAK4 (interleukin 1 receptor associated kinase 4)","PubChem SID":"SID134309837","robust z-score, no drug":0.426}
{"target":"PRKAB2 (protein kinase AMP-activated non-catalytic subunit beta 2)","PubChem SID":"SID134312706","robust z-score, no drug":-1.9}
{"target":"CAMKV (CaM kinase like vesicle associated)","PubChem SID":"SID135620973","robust z-score, no drug":0.426}
{"target":"SMAD2 (SMAD family member 2)","PubChem SID":"SID152156776","robust z-score, no drug":0.426}
{"target":"UCK1 (uridine-cytidine kinase 1)","PubChem SID":"SID56478768","robust z-score, no drug":0.426}
{"target":"CDC42BPG (CDC42 binding protein kinase gamma)","PubChem SID":"SID135621430","robust z-score, no drug":0.426}
{"target":"LMTK3 (lemur tail kinase 3)","PubChem SID":"SID152150242","robust z-score, no drug":0.426}
{"target":"PANK2 (pantothenate kinase 2)","PubChem SID":"SID152147442","robust z-score, no drug":-1.76}
